{"source": "paper PMC9732823", "about": "“Discovery of Dual Aβ/Tau Inhibitors and Evaluation of Their Therapeutic Effect on a Drosophila Model of Alzheimer’s Disease” (ACS Chemical Neuroscience, 2022)", "assay": "PAMPA-BBB assay", "settings": "PAMPA-BBB penetration estimation", "source_text": "Thus, to reduce attrition in the development process, the evaluation of BBB penetration at a very early drug discovery stage is of crucial importance. In light of this, the ability of the previously selected compounds to cross the BBB was predicted by a parallel artificial membrane permeability assay (PAMPA)-BBB,[41] a high-throughput technique widely used as an indicator of a molecule’s passive diffusion through the BBB. Six commercially available drugs were used to validate the assay.\nPAMPA (the parallel artificial membrane permeability assay) is a high-throughput screening tool applicable for the prediction of the passive transport of potential drugs across the BBB.[41] […] The concentrations of the tested compound in both donor and the acceptor wells were assessed after 3, 4, 5, and 6 h of incubation in quadruplicate using a UV plate reader, Synergy HT (Biotek) at the maximum absorption wavelength of each compound (n=3). In addition to that, solution of the theoretical compound concentration, simulating the equilibrium state established if the membrane were ideally permeable, was prepared and assessed as well. The concentrations of the compounds in the donor and acceptor wells and the equilibrium concentration were calculated from the standard curve and expressed as the permeability (Pe) according to the equation[41] […]"}
{"smiles": "NS(=O)(=O)c1cc(C(=O)O)c(NCc2ccco2)cc1Cl", "note": "[Furosemide, reference compound]", "values": [{"measurement": "CNS (+/-)", "result": "CNS - (CNS - (low BBB permeation predicted): Pe (×10-6 cm s-1) < 2.0)"}]}
